{"source": "patent US20080107619A1", "about": "“Carbohydrate based cellulase inhibitors as feeding stimulants in termites” (University of Florida Research Foundation, Inc., priority 2006, published 2008)", "key": {"[1]": {"test_system": "R. flavipes worker termites", "assay": "No-choice Petri dish in vivo feeding bioassay (feeding and mortality, 24 days)", "details": "1-5 mM (0.05-0.2% wt/wt); percent of untreated controls through 24 days", "experimental": "R. flavipes colonies were collected from the University of Florida campus during spring and summer 2006. Colonies were maintained in sealed plastic boxes (30×24×10 cm) at 22±1° C. and 69±1% RH. Colonies were maintained without soil and provisioned with moist brown paper towels and wood shims. Colonies that were acclimated under the above conditions for <2 months are referred to as “field colonies”, while those held for >6 months are referred to as “lab colonies”. Unless otherwise stated, all studies reported here were run with lab colonies.\nTwo different termite colonies were used. A lab colony was used in bioassays that tested the effects of CBI and FMG; this was the same colony used in cellulase optimization studies, cellulase distribution studies, and for 150 determination. […]\nTermite feeding on the filter papers was readily observable and quantifiable from the bioassays. Average feeding through the entire bioassay was summed within each replicate and calculated as a percentage of feeding relative to untreated controls, then averaged across replicates.\nThe experimental design consisted of three replicate dishes per concentration. […] Termite mortality and filter paper moisture were monitored every 4th day. […] Data were analyzed by non-parametric t-tests (p<0.05) with commercially-available software for use in statistical analysis, designed by SAS Institute, Cary, N.C. […]"}, "[2]": {"test_system": "exoglucanase", "assay": "Post-feeding inhibition of exoglucanase activity in whole-body homogenates", "assay_type": "in vivo, R. flavipes", "details": "after 24 days feeding, various concentrations; FIGS. 11A-11B", "experimental": "(§1) Whole body homogenates were used for optimization and post-feeding inhibition studies. Here, 10-15 termite workers were homogenized in 1 to 1.5 ml ice-cold homogenization buffer with a Teflon-glass (Potter-Elvehjem) homogenizer powered by a motorized electric stirrer (Fisher Scientific). After homogenization, both gut region and whole-body preparations were centrifuged at 15,000× g and 4° C. for 15 min. The resulting supernatants from the different gut regions were used directly for subsequent enzyme assays. Supernatants from whole-body homogenates were passed through glass wool to remove excess lipids before proceeding with cellulase activity assays.\n(§2) Cellulase activity assays were adapted from Han et al. in “Characterization of a bifunctional cellulase and its structural gene,” J. Biol. Chem. 270 (1995) 26012-26019, with optimization for a 96-well microplate format. […] Color was allowed to develop on ice for 15 min before measuring absorbance at 540 nm relative to a glucose standard curve.\n(§3) The hydrolysis product of both the pNPC and pNPG substrates is p-nitrophenol, which is yellow in color and permits for direct quantification of activity in a kinetic assay. pNPC and pNPG assays were initially incubated at 32° C. for 20 min before measuring the release of the product, p-nitrophenol, at 420 nm. […]"}, "[3]": {"test_system": "β-glucosidase", "assay": "Post-feeding inhibition of β-glucosidase activity in whole-body homogenates", "assay_type": "in vivo, R. flavipes", "details": "after 24 days feeding, various concentrations; FIGS. 11A-11B", "experimental": "as §1, §2, §3"}, "[4]": {"test_system": "endoglucanase", "assay": "Post-feeding inhibition of endoglucanase activity in whole-body homogenates", "assay_type": "in vivo, R. flavipes", "details": "after 24 days feeding, various concentrations; FIGS. 11A-11C", "experimental": "as §1\nCellulase activity assays were adapted from Han et al. in “Characterization of a bifunctional cellulase and its structural gene,” J. Biol. Chem. 270 (1995) 26012-26019, with optimization for a 96-well microplate format. The model substrates used to test for endoglucanase, exoglucanase and β-glucosidase activities were CMC (FIG. 1A), pNPC (FIG. 1B) and pNPG (FIG. 1C), respectively. The substrate concentration used for CMC was 0.5% (w/v), while pNPG and pNPC were used at 4 mM. All substrates were diluted in homogenization buffer. […] Color was allowed to develop on ice for 15 min before measuring absorbance at 540 nm relative to a glucose standard curve. […]"}}, "note": "Some of these results come from one statement about several compounds together. For some of these results: For at least one compound, name, drawing or mass did not settle the structure.", "data": [{"compound": "OC[C@@H]1[C@@H](O[C@@H]2O[C@H](CO)[C@@H](O)[C@H](O)[C@H]2O)[C@H](O)[C@@H](O)c2nccn21", "note": "[CBI, cellobioimidazole]", "values": [{"measurement": "feeding stimulation", "setting": "[1]", "result": "120-130%"}]}, {"compound": "fluoromethyl glucose [FMG]", "values": [{"measurement": "exoglucanase activity after feeding, reduction relative to controls", "setting": "[2]", "result": "≤ 40", "unit": "%"}, {"measurement": "β-glucosidase activity after feeding, reduction relative to controls", "setting": "[3]", "result": "≤ 40", "unit": "%"}, {"measurement": "endoglucanase activity after feeding, reduction relative to controls", "setting": "[4]", "result": "≤ 40", "unit": "%"}]}]}
